One experiment concerns the target T1, GST-NOSIP (UniProt Q9Y314).
T1 sequence: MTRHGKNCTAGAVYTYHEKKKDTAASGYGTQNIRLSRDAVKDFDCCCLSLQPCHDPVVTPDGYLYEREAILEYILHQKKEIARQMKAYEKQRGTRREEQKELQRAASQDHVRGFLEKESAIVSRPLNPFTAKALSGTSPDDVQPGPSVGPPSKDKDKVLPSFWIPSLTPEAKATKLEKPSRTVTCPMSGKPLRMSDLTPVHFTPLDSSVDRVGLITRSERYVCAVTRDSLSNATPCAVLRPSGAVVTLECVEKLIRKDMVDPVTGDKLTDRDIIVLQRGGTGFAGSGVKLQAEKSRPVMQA
In words: pull-down; GST-NOSIP on Glutathione sepharose beads incubated with cleared HeLa cell lysate at 4°C; immunoblot with PP2A subunit-specific antibodies; only the target purified. Background: In western blotting, separated proteins are transferred to a membrane and probed.

Protein sequences, listed by entry. Tags and fused reporters are not part of them.
UniProt P67775: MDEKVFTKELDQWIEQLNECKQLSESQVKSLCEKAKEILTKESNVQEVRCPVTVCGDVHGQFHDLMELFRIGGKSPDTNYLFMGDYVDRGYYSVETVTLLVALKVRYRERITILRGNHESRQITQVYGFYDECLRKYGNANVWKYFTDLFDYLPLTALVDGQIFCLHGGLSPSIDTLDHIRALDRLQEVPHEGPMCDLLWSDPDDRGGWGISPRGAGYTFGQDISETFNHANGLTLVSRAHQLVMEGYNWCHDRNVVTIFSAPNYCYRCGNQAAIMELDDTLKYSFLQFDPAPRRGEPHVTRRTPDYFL
UniProt P30153: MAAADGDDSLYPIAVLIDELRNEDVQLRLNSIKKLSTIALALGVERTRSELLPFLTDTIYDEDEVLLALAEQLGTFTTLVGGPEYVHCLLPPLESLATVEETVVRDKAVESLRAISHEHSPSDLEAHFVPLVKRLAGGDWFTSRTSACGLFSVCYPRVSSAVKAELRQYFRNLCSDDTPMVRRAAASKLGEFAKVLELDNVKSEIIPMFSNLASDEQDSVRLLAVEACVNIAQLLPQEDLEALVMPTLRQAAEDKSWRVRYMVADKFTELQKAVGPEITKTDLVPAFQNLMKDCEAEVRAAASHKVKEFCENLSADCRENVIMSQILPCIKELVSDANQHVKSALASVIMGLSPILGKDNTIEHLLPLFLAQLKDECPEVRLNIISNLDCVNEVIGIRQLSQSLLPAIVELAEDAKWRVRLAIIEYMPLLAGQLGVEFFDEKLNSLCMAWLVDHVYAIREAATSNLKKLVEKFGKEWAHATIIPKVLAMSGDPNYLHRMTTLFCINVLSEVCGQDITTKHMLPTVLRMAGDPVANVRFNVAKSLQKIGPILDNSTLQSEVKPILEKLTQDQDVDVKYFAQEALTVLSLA

Experiment [1] addresses T2, NOSIP (endogenous) (human (endogenous in HeLa)) (UniProt Q9Y314).
T2 sequence: T1 sequence
In words: co-IP; endogenous proteins from HeLa cell lysate; IP with a polyclonal NOSIP-specific antiserum, Protein A/G Agarose; beads only as control; immunoblot with PP2A subunit-specific antibodies.

Substrate in experiment [2]: T3, NOSIP (endogenous) (human (endogenous in HeLa)) (UniProt Q9Y314)
T3 sequence: T1 sequence
The description is as above. This is another data set of the same source.

Read-outs that look alike come from different tables or passages of the source. These are yes or no findings as the source states them, for the method shown. Binding seen in cells or lysates may run through a third protein. Some binding calls cover weakened binding; strength is not graded here. For part of these data: Where a sequence is shown, tags or fusion partners need not be part of it.

As to “PP2A catalytic subunit alpha isoform (from UniProt P67775 1-309) (enzyme)”, the binding entry (with GST-NOSIP; in experiment [1]) was “binds” each time.

Turning to “PP2A subunit A isoform PR65-alpha (from UniProt P30153 1-589)”, the binding result (in the experiment with GST-NOSIP; in experiment [1]) was “binds” each time.

B1: PP2A subunit B isoform B55-alpha (protein, UniProt P63151 1-447)
chain: MAGAGGGNDIQWCFSQVKGAVDDDVAEADIISTVEFNHSGELLATGDKGGRVVIFQQEQENKIQSHSRGEYNVYSTFQSHEPEFDYLKSLEIEEKINKIRWLPQKNAAQFLLSTNDKTIKLWKISERDKRPEGYNLKEEDGRYRDPTTVTTLRVPVFRPMDLMVEASPRRIFANAHTYHINSISINSDYETYLSADDLRINLWHLEITDRSFNIVDIKPANMEELTEVITAAEFHPNSCNTFVYSSSKGTIRLCDMRASALCDRHSKLFEEPEDPSNRSFFSEIISSISDVKFSHSGRYMMTRDYLSVKIWDLNMENRPVETYQVHEYLRSKLCSLYENDCIFDKFECCWNGSDSVVMTGSYNNFFRMFDRNTKRDITLEASRENNKPRTVLKPRKVCASGKRKKDEISVDSLDFNKKILHTAWHPKENIIAVATTNNLYIFQDKVN
As for B1, the binding result (with GST-NOSIP; in experiment [2]) was “binds” each time.

The values above are taken from publication PMC4278855.
